In PMC3280960:
These are yes or no findings as the source states them, for the method shown. In cells and extracts the contact can be indirect. Some results given as binding are weak or reduced against the parent protein; the word gives no strength. Tags and fused reporters may be left off the sequences shown.

T1: GST::NHR-69 (C. elegans) (UniProt P91829)
T1 sequence: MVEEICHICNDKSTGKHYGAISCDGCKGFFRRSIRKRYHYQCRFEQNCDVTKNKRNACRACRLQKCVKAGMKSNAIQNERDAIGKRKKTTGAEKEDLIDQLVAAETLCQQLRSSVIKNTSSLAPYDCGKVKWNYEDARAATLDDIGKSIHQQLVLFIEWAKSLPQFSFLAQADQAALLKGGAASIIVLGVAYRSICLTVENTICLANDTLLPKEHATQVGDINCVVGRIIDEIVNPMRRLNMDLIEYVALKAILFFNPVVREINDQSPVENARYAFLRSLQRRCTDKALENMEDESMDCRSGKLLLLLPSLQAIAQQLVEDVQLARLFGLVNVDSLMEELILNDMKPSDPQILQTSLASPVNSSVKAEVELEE

T2: DAF-8 (C. elegans (endogenous in worms)) (UniProt Q21733)
T2 sequence: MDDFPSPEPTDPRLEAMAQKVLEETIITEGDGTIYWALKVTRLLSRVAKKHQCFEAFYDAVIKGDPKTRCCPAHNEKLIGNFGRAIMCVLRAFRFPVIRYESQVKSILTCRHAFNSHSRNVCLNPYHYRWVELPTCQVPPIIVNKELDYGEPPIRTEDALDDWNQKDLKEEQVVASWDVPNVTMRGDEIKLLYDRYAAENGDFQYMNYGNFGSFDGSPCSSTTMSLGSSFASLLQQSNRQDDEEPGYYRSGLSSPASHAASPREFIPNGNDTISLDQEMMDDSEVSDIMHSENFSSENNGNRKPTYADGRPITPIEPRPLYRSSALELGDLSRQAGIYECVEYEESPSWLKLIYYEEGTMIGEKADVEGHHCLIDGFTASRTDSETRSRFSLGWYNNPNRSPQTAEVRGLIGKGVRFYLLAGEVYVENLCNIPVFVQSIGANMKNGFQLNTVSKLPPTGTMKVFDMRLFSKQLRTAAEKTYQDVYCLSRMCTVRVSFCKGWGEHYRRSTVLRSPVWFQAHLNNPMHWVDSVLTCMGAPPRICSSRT


Legend:
GST::NHR-69 (C. elegans) = biological target: T1, GST::NHR-69 (C. elegans); experiment: pull-down; in vitro GST pull-down: GST fusion of NHR-69 or GST alone with in vitro transcribed/translated Smad proteins; only the target purified
[1] = biological target: T2, DAF-8 (C. elegans (endogenous in worms)); experiment: co-IP; in vivo co-immunoprecipitation with anti-DAF-8 antibody from nhr-69p::nhr-69::gfp worms (wild-type worms as control), immunoblot with anti-GFP antibody

binding (GST::NHR-69 (C. elegans)) | binding [1] | Binder
binds |  | DAF-8 (in vitro transcribed/translated) (protein, UniProt Q21733 1-546) MDDFPSPEPTDPRLEAMAQKVLEETIITEGDGTIYWALKVTRLLSRVAKKHQCFEAFYDAVIKGDPKTRCCPAHNEKLIGNFGRAIMCVLRAFRFPVIRYESQVKSILTCRHAFNSHSRNVCLNPYHYRWVELPTCQVPPIIVNKELDYGEPPIRTEDALDDWNQKDLKEEQVVASWDVPNVTMRGDEIKLLYDRYAAENGDFQYMNYGNFGSFDGSPCSSTTMSLGSSFASLLQQSNRQDDEEPGYYRSGLSSPASHAASPREFIPNGNDTISLDQEMMDDSEVSDIMHSENFSSENNGNRKPTYADGRPITPIEPRPLYRSSALELGDLSRQAGIYECVEYEESPSWLKLIYYEEGTMIGEKADVEGHHCLIDGFTASRTDSETRSRFSLGWYNNPNRSPQTAEVRGLIGKGVRFYLLAGEVYVENLCNIPVFVQSIGANMKNGFQLNTVSKLPPTGTMKVFDMRLFSKQLRTAAEKTYQDVYCLSRMCTVRVSFCKGWGEHYRRSTVLRSPVWFQAHLNNPMHWVDSVLTCMGAPPRICSSRT
no binding |  | DAF-14 (in vitro transcribed/translated) (protein, UniProt F5GUE5 1-331) MSNEQEDFGSLFNNQGELGIMDDFAEFGFQTTTTPTNWAAAGNYMYPDQVHLPASINNPNMPINDWLEDAPMPDCYNVPSTSTDENNDPFPFSNISSQSSLKPKTPEKAVVEVRPTGNEMLDPEPKYPKEEKPWCTIFYYELTVRLGKAFEAKVPTITIDGATGASDECRMSLTSQPSSRNSKSSQIRNTVGAGIQLAYENGELWLTVLTDQIVFVQCPFLNQTLNKPLKYVFRLQNKGDQKRMKIFDKEQFEQEKTLALGPLTEKEVADERMRIFSNIRVSFCKGFGETYSRLKVVNLPCWIEIILHEPADEYDTVFRINNERPEIGSRS
 | binds | NHR-69::GFP (protein, UniProt P91829 1-373) MVEEICHICNDKSTGKHYGAISCDGCKGFFRRSIRKRYHYQCRFEQNCDVTKNKRNACRACRLQKCVKAGMKSNAIQNERDAIGKRKKTTGAEKEDLIDQLVAAETLCQQLRSSVIKNTSSLAPYDCGKVKWNYEDARAATLDDIGKSIHQQLVLFIEWAKSLPQFSFLAQADQAALLKGGAASIIVLGVAYRSICLTVENTICLANDTLLPKEHATQVGDINCVVGRIIDEIVNPMRRLNMDLIEYVALKAILFFNPVVREINDQSPVENARYAFLRSLQRRCTDKALENMEDESMDCRSGKLLLLLPSLQAIAQQLVEDVQLARLFGLVNVDSLMEELILNDMKPSDPQILQTSLASPVNSSVKAEVELEE
no binding |  | DAF-3 (in vitro transcribed/translated) (protein, UniProt Q95QI7 1-892) MGDHHNLTGLPGTSIPPQFNYSQPGTSTGGPLYGGKPSHGLEDIPDVEEYERNLLGAGAGFNLLNVGNMANEFKPIITLDTKPPRDANKSLAFNGGLKLITPKTEVPDEHTPMMSPVNTTTKILQRSGIKMEIPPYLDPDSQDDDPEDGVNYPDPDLFDTKNTNMTEYDLDVLKLGKPAVDEARKKIEVPDASAPPNKIVEYLMYYRTLKESELIQLNAYRTKRNRLSLNLVKNNIDREFDQKACESLVKKLKDKKNDLQNLIDVVLSKGTKYTGCITIPRTLDGRLQVHGRKGFPHVVYGKLWRFNEMTKNETRHVDHCKHAFEMKSDMVCVNPYHYEIVIGTMIVGQRDHDNRDMPPPHQRYHTPGRQDPVDDMSRFIPPASIRPPPMNMHTRPQPMPQQLPSVGATFAHPLPHQAPHNPGVSHPYSIAPQTHYPLNMNPIPQMPQMPQMPPPLHQGYGMNGPSCSSENNNPFHQNHHYNDISHPNHYSYDCGPNLYGFPTPYPDFHHPFNQQPHQPPQLSQNHTSQQGSHQPGHQGQVPNDPPISRPVLQPSTVTLDVFRRYCRQTFGNRFFEGESEQSGAIIRSSNKFIEEFDSPICGVTVVRPRMTDGEVLENIMPEDAPYHDICKFILRLTSESVTFSGEGPEVSDLNEKWGTIVYYEKNLQIGEKKCSRGNFHVDGGFICSENRYSLGLEPNPIREPVAFKVRKAIVDGIRFSYKKDGSVWLQNRMKYPVFVTSGYLDEQSGGLKKDKVHKVYGCASIKTFGFNVSKQIIRDALLSKQMATMYLQGKLTPMNYIYEKKTQEELRREATRTTDSLAKYCCVRVSFCKGFGEAYPERPSIHDCPVWIELKINIAYDFMDSICQYITNCFEPLGMEDFAKLGINVSDD
